# Inconclusive means that the source gave no clear call. Such entries were picked first, then a sample of the others. Where the call is inconclusive, the potency comes from a doubtful curve fit. Activity calls are given as the source filed them. Calls follow the shape of the dose curve; as a rule, active = well fitted cell-killing curve with a large enough effect; inconclusive = small, poorly fitted or top-dose-only effect, or effect the other way; inactive = no such curve, though single readings can be large or run the other way.
# Key:
# [1] = Quantitative High-Throughput drug screen in 47 multiple myeloma cell lines against the NCATS MIPE library collection: FR4_PLB cell viability assay (AID 1918924; also: nearly all actives have a fitted effect of over 35% in size); settings: FR4_PLB myeloma cells viability, CellTiter-Glo ATP, 48 h; viability (% of DMSO control): at 45.8 µM (top of the series)
# Outline: (§1)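 Myeloma cell lines, 500 cells per well, exposed to MIPE 4.0 library compounds for 48 h at 37C, 5% CO2. Viability from ATP by CellTiter-Glo luminescence; normalised to DMSO (100%) and media-only (0%) wells.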
# [2] = Quantitative High-Throughput drug screen in 47 multiple myeloma cell lines against the NCATS MIPE library collection: EJM_DSMZ cell viability assay (AID 1918926; also: nearly all actives have a fitted effect of over 30% in size); settings: EJM myeloma cell viability, CellTiter-Glo ATP, 48 h; viability, % of control: at 45.8 µM (top of the series)
# Outline: (§2)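 Viability readout: CellTiter-Glo luminescence following 5 min room-temperature incubation with reagent. Prior exposure: 48 h, 37C, humidified 5% CO2, 500 cells per well.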
# [3] = Quantitative High-Throughput drug screen in 47 multiple myeloma cell lines against the NCATS MIPE library collection: ARP1_JJKsccF8 cell viability assay (AID 1918928; also: nearly all actives have a fitted effect of over 40% in size); settings: ARP1 myeloma cells viability, CellTiter-Glo ATP, 48 h; viability: at 45.8 µM (top of the series)
# Outline: (§3)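 Myeloma cells, 500 per well, were exposed to MIPE 4.0 drugs by pin transfer for 48 h at 37 °C, 5% CO2. Viability was read as ATP luminescence with CellTiter-Glo, normalised to DMSO-only (100%) and medium-only (0%) wells.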
# [4] = Quantitative High-Throughput drug screen in 47 multiple myeloma cell lines against the NCATS MIPE library collection: ARD_JJKsccE7 cell viability assay (AID 1918929)
# Outline: as §2
# [5] = Quantitative High-Throughput drug screen in 47 multiple myeloma cell lines against the NCATS MIPE library collection: Karpas620_DSMZ cell viability assay (AID 1918959); also: nearly all actives have a fitted effect of over 30% in size
# Outline: as §1
# [6] = Quantitative High-Throughput drug screen in 47 multiple myeloma cell lines against the NCATS MIPE library collection: KMM1_JCRB cell viability assay (AID 1918960); settings: KMM1 myeloma viability, CellTiter-Glo ATP luminescence, 48 h; viability (% of DMSO): at 45.8 µM (top of the series); also: nearly all actives have a fitted effect of over 30% in size
# Outline: as §3
# [7] = Quantitative High-Throughput drug screen in 47 multiple myeloma cell lines against the NCATS MIPE library collection: Karpas417_ECACC cell viability assay (AID 1918961); settings: Karpas417 myeloma viability, CellTiter-Glo ATP luminescence, 48 h; viability (% of DMSO): at 45.8 µM (top of the series) unless noted
# Outline: as §1
# [8] = Quantitative High-Throughput drug screen in 47 multiple myeloma cell lines against the NCATS MIPE library collection: KHM11_PLB cell viability assay (AID 1918962); settings: KHM11 myeloma cell viability, CellTiter-Glo ATP luminescence, 48 h; viability, % of DMSO control: at 45.8 µM (top of the series); also: nearly all actives have a fitted effect of over 35% in size
# Outline: as §1
# [9] = Quantitative High-Throughput drug screen in 47 multiple myeloma cell lines against the NCATS MIPE library collection: Delta47_JCRB cell viability assay (AID 1918925; also: nearly all actives have a fitted effect of over 45% in size); settings: Delta47 myeloma viability, CellTiter-Glo ATP, 48 h; viability (% of DMSO): at 45.8 µM (top of the series) unless noted
# Outline: as §2
# [10] = Quantitative High-Throughput drug screen in 47 multiple myeloma cell lines against the NCATS MIPE library collection: AMO1_DSMZ cell viability assay (AID 1918927; also: nearly all actives have a fitted effect of over 30% in size)
# Outline: as §2
# Potency is read from the fitted curve at half-maximal effect.
smiles,measurement,setting,value
CCc1nc(N)nc(N)c1-c1ccc(Cl)cc1,Potency,[1],"inconclusive: 8.33 µM [cytotoxic, single point]"
same,Potency,[2],inactive
same,Potency,[3],"inconclusive: 11.8 µM [cytotoxic, full curve]"
same,Potency,[4],"inconclusive: 4.69 µM [cytotoxic, full curve]"
same,Potency,[5],inactive
same,Potency,[6],"inconclusive: 7.43 µM [cytotoxic, full curve]"
same,Potency,[7],"inconclusive: 0.0017 µM [cytotoxic, full curve, poor fit]"
same,Potency,[8],inactive
CCOC(=O)C1=C(O)C(=O)N(Cc2ccccc2)C1,Potency,[1],inactive
same,Potency,[9],"inconclusive: 0.0235 µM [cytotoxic, full curve, poor fit]"
same,Potency,[3],"inconclusive: 23.5 µM [cytotoxic, single point]"
same,Potency,[4],inactive
same,Potency,[7],"inconclusive: 5.9 µM [cytotoxic, full curve, poor fit]"
same,Potency,[8],"inconclusive: 18.7 nM [cytotoxic, full curve, poor fit]"
CC(=O)N1CCN(c2ccc(OCc3nn(C)c(C)c3-c3cccc4c(CCCOc5cc(C)c(Cl)c(C)c5)c(C(=O)O)n(Cc5cccnc5)c34)cc2)CC1,Potency,[1],"inconclusive: 33.2 µM [cytotoxic, single point]"
same,Potency,[9],active: 4.69 µM
same,Potency,[3],"inconclusive: 26.4 µM [cytotoxic, single point]"
same,Potency,[6],"inconclusive: 29.6 µM [cytotoxic, single point]"
same,viability (% of DMSO),[7],inconclusive: 7.08% [cytotoxic]
same,Potency,[8],"inconclusive: 469 nM [cytotoxic, full curve, poor fit]"
O=c1oc2c(O)c(O)cc3c(=O)oc4c(O)c(O)cc1c4c23,Potency,[1],inactive
same,Potency,[2],"inconclusive: 37.2 µM [cytotoxic, single point]"
same,Potency,[10],"inconclusive: 8.33 µM [cytotoxic, partial curve, poor fit]"
same,Potency,[3],"inconclusive: 33.2 µM [cytotoxic, single point]"
same,Potency,[4],inactive
same,Potency,[6],"inconclusive: 0.0017 µM [cytotoxic, full curve, poor fit]"
same,Potency,[7],"inconclusive: 37.2 µM [rising, partial curve, poor fit]"
same,Potency,[8],"inconclusive: 4.2 nM [rising, full curve, poor fit]"
C=CC[N+]1([C@H]2C[C@H]3[C@@H]4CC[C@H]5C[C@H](O)[C@@H](N6CCOCC6)C[C@]5(C)[C@@H]4CC[C@]3(C)[C@H]2OC(C)=O)CCCC1,Potency,[1],"inconclusive: 0.0026 µM [rising, full curve, poor fit]"
same,Potency,[2],"inconclusive: 23.5 µM [cytotoxic, single point]"
same,Potency,[10],"inconclusive: 13.2 µM [cytotoxic, partial curve, poor fit]"
same,Potency,[4],inactive
same,Potency,[5],inactive
same,Potency,[7],inactive
same,Potency,[8],inactive
NC1=N[C@@]2(c3cc(NC(=O)c4ccc(F)cn4)ccc3F)COC[C@@H]2CS1,Potency,[1],"inconclusive: 26.4 µM [cytotoxic, single point]"
same,Potency,[2],"inconclusive: 26.4 µM [cytotoxic, single point]"
same,Potency,[10],active: 2.64 µM
same,Potency,[3],"inconclusive: 29.6 µM [cytotoxic, partial curve]"
same,Potency,[6],active: 3.32 µM
same,viability (% of DMSO),[7],active: 105%
Cc1cccc(-c2[nH]ncc2-c2ccc3ncccc3n2)n1,Potency,[1],active: 0.118 µM
same,Potency,[9],"inconclusive: 4.69 µM [cytotoxic, partial curve, poor fit]"
same,Potency,[4],inactive
same,Potency,[6],"inconclusive: 0.235 µM [cytotoxic, partial curve, poor fit]"
same,Potency,[7],"inconclusive: 0.59 µM [rising, full curve, poor fit]"
CC(C)[C@H](N)C(=O)OCCOCn1cnc2c(=O)[nH]c(N)nc21,Potency,[1],"inconclusive: 37.2 µM [cytotoxic, single point]"
same,Potency,[9],inactive
same,Potency,[6],"inconclusive: 33.2 µM [cytotoxic, single point]"
Cc1ccc(-n2[nH]c(C)c(N=Nc3cccc(-c4cccc(C(=O)O)c4)c3O)c2=O)cc1C,Potency,[1],active: 20.9 µM
same,Potency,[2],"inconclusive: 18.7 µM [cytotoxic, partial curve]"
same,Potency,[10],inactive
same,Potency,[3],"inconclusive: 18.7 µM [cytotoxic, partial curve]"
same,Potency,[7],"inconclusive: 4.18 µM [rising, partial curve, poor fit]"
same,Potency,[8],"inconclusive: 37200 nM [cytotoxic, partial curve, poor fit]"
Cc1c[nH]c(C=C2C(=O)Nc3ccccc32)c1CCC(=O)O,Potency,[1],"inconclusive: 26.4 µM [cytotoxic, single point]"
same,"viability, % of control",[2],inconclusive: 67% [cytotoxic]
same,Potency,[10],"inconclusive: 33.2 µM [cytotoxic, single point]"
same,Potency,[3],"inconclusive: 23.5 µM [cytotoxic, single point]"
same,Potency,[4],"inconclusive: 23.5 µM [cytotoxic, partial curve, poor fit]"
same,Potency,[8],"inconclusive: 26400 nM [cytotoxic, single point]"
COc1ccc(-c2nc(N3CCOCC3)c3sc(CN(C)c4ncc(C(=O)NO)cn4)cc3n2)cn1,Potency,[1],"inconclusive: 0.0019 µM [cytotoxic, full curve]"
same,Potency,[9],"inconclusive: 0.0053 µM [cytotoxic, full curve]"
same,Potency,[5],active: 0.001 µM
same,"viability, % of DMSO control",[8],inconclusive: 2.83% [cytotoxic]
O=C(OC1C[C@H]2CC[C@@H](C1)[N+]21CCCC1)C(O)(c1ccccc1)c1ccccc1 (stereo partly drawn),Potency,[1],inactive
same,Potency,[9],"inconclusive: 2.64 µM [cytotoxic, full curve, poor fit]"
same,Potency,[3],inactive
same,Potency,[4],"inconclusive: 0.0017 µM [rising, full curve, poor fit]"
same,Potency,[7],"inconclusive: 6.62 µM [rising, partial curve, poor fit]"
same,Potency,[8],inactive
CC1(C)S[C@H]2[C@H](NC(=O)[C@@H](N)c3ccc(O)cc3)C(=O)N2[C@@H]1C(=O)O,Potency,[1],inactive
same,Potency,[9],inactive
same,Potency,[4],active: 4.69 µM
same,Potency,[7],active: 1.66 µM
same,Potency,[8],"inconclusive: 264 nM [rising, full curve, poor fit]"
O=C(N[C@H](CO)[C@H](O)c1ccc([N+](=O)[O-])cc1)C(Cl)Cl,Potency,[1],inconclusive: 0.001 µM
same,Potency,[9],inactive
same,Potency,[4],inactive
same,Potency,[5],inactive
same,Potency,[6],inactive
same,Potency,[7],"inconclusive: 5.26 µM [cytotoxic, partial curve, poor fit]"
same,Potency,[8],inactive
O=C(O)C(O)Cc1ccc(O)c(O)c1 (stereo not drawn),Potency,[1],"inconclusive: 33.2 µM [cytotoxic, single point]"
same,Potency,[9],"inconclusive: 20.9 µM [cytotoxic, partial curve, poor fit]"
same,Potency,[4],inactive
same,Potency,[6],"inconclusive: 0.059 µM [cytotoxic, full curve, poor fit]"
same,Potency,[7],"inconclusive: 11.8 µM [rising, partial curve, poor fit]"
same,Potency,[8],"inconclusive: 37200 nM [cytotoxic, single point]"
COCCCCC(=NOCCN)c1ccc(C(F)(F)F)cc1,Potency,[1],"inconclusive: 2.35 µM [cytotoxic, full curve, poor fit]"
same,Potency,[2],"inconclusive: 18.7 µM [cytotoxic, single point]"
same,Potency,[10],inactive
same,Potency,[4],inactive
same,Potency,[5],inactive
same,Potency,[8],"inconclusive: 18700 nM [cytotoxic, partial curve, poor fit]"
CC(C)(C#N)c1cc(Cn2cncn2)cc(C(C)(C)C#N)c1,Potency,[1],inactive
same,Potency,[9],"inconclusive: 0.0833 µM [cytotoxic, full curve, poor fit]"
same,Potency,[3],"inconclusive: 5.9 µM [cytotoxic, full curve, poor fit]"
same,Potency,[4],inactive
same,Potency,[7],"inconclusive: 0.0042 µM [cytotoxic, full curve, poor fit]"
same,Potency,[8],inactive
NC(=O)OCC(COC(N)=O)c1ccccc1,Potency,[1],inactive
same,Potency,[2],inactive
same,Potency,[10],inactive
same,Potency,[5],inactive
same,Potency,[7],"inconclusive: 11.8 µM [rising, partial curve, poor fit]"
same,Potency,[8],inactive
CC(C)=CCCC(C)=CCCC(C)=CCCC(C)=CCCC(C)=CCCC(C)=CCCC(C)=CCCC(C)=CCCC(C)=CCO,Potency,[1],inactive
same,Potency,[9],inactive
same,Potency,[4],inactive
same,Potency,[6],inactive
same,Potency,[8],"inconclusive: 10.5 nM [rising, full curve, poor fit]"
CNC(=O)[C@H](Cc1ccccc1)NC(=O)[C@H](CC(C)C)[C@H](CSc1cccs1)C(=O)NO,Potency,[1],"inconclusive: 18.7 µM [cytotoxic, partial curve, poor fit]"
same,Potency,[2],"inconclusive: 29.6 µM [cytotoxic, single point]"
same,Potency,[10],"inconclusive: 7.43 µM [cytotoxic, partial curve, poor fit]"
same,Potency,[3],"inconclusive: 26.4 µM [cytotoxic, single point]"
same,Potency,[4],"inconclusive: 18.7 µM [cytotoxic, partial curve]"
same,Potency,[5],"inconclusive: 16.6 µM [cytotoxic, partial curve]"
same,Potency,[7],"inconclusive: 5.26 µM [cytotoxic, partial curve, poor fit]"
same,Potency,[8],inactive
Cc1nnc(C(C)C)n1C1C[C@H]2CC[C@@H](C1)N2CC[C@H](NC(=O)C1CCC(F)(F)CC1)c1ccccc1 (stereo partly drawn),Potency,[1],inactive
same,Potency,[2],inconclusive: 0.001 µM
same,Potency,[3],inactive
same,Potency,[4],"inconclusive: 66.2 µM [cytotoxic, single point]"
same,Potency,[5],"inconclusive: 16.6 µM [cytotoxic, partial curve, poor fit]"
same,Potency,[6],"inconclusive: 37.2 µM [cytotoxic, single point]"
same,Potency,[7],"inconclusive: 33.2 µM [cytotoxic, partial curve, poor fit]"
same,Potency,[8],"inconclusive: 4.2 nM [rising, full curve, poor fit]"

# 6 entries from above, reformatted.
smiles	measurement	setting	value
CCOC(=O)C1=C(O)C(=O)N(Cc2ccccc2)C1	Potency	[9]	inconclusive: 0.0235 µM [cytotoxic, full curve, poor fit]
same	Potency	[8]	inconclusive: 18.7 nM [cytotoxic, full curve, poor fit]
C=CC[N+]1([C@H]2C[C@H]3[C@@H]4CC[C@H]5C[C@H](O)[C@@H](N6CCOCC6)C[C@]5(C)[C@@H]4CC[C@]3(C)[C@H]2OC(C)=O)CCCC1	Potency	[4]	inactive
CC1(C)S[C@H]2[C@H](NC(=O)[C@@H](N)c3ccc(O)cc3)C(=O)N2[C@@H]1C(=O)O	Potency	[9]	inactive
COCCCCC(=NOCCN)c1ccc(C(F)(F)F)cc1	Potency	[5]	inactive
Cc1nnc(C(C)C)n1C1C[C@H]2CC[C@@H](C1)N2CC[C@H](NC(=O)C1CCC(F)(F)CC1)c1ccccc1 (stereo partly drawn)	Potency	[2]	inconclusive: 0.001 µM

# Source: PubChem BioAssay (NCATS)
